In the assay the target is T1, CD20 (MS4A1), endogenous in BJAB B cells (human (endogenous in BJAB)) (UniProt P11836).
T1 sequence: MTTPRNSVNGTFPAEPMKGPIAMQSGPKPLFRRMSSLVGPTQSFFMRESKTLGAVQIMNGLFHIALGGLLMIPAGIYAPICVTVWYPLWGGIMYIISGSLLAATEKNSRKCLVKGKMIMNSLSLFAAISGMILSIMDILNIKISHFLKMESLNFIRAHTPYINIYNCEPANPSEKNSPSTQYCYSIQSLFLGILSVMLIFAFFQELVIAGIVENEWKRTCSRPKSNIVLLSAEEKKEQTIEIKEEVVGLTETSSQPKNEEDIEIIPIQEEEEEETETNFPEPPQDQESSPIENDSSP
The experiment in a line: affinity purification with mass spectrometry; IP of endogenous CD20 from BJAB lysates (1% Brij97 or 1% digitonin, 10 mM Tris-HCl pH 7.5, 150 mM NaCl, 2 mM MgCl2, 2 mM CaCl2) with anti-human CD20 antibody and Protein G Dynabeads, 4 °C; IgG2a isotype control; LC-MS/MS, iBAQ.

No constants are given. Whether binding was seen depends on the method and setting. In cells and extracts the contact can be indirect. A yes stands for co-enrichment or nearness to the bait. Other partners may have been found.

B1: tetraspanin CD37, endogenous in BJAB B cells (protein, UniProt P11049 1-281)
chain: MSAQESCLSLIKYFLFVFNLFFFVLGSLIFCFGIWILIDKTSFVSFVGLAFVPLQIWSKVLAISGIFTMGIALLGCVGALKELRCLLGLYFGMLLLLFATQITLGILISTQRAQLERSLRDVVEKTIQKYGTNPEETAAEESWDYVQFQLRCCGWHYPQDWFQVLILRGNGSEAHRVPCSCYNLSATNDSTILDKVILPQLSRLGHLARSRHSADICAVPAESHIYREGCAQGLQKWLHNNLISIVGICLGVGLLELGFMTLSIFLCRNLDHVYNRLARYR
Regarding B1, the binding result is on record as “binds”.

B2: CD70, endogenous in BJAB B cells (protein, UniProt P32970 1-193)
chain: MPEEGSGCSVRRRPYGCVLRAALVPLVAGLVICLVVCIQRFAQAQQQLPLESLGWDVAELQLNHTGPQQDPRLYWQGGPALGRSFLHGPELDKGQLRIHRDGIYMVHIQVTLAICSSTTASRHHPTTLAVGICSPASRSISLLRLSFHQGCTIASQRLTPLARGDTLCTNLTGTLLPSRNTDETFFGVQWVRP
For B2, the binding result is given as “binds”.

The record behind these values is paper PMC12037035.
